Reference: the supplement of paper PMC6411743
± gives the standard deviation of the averaged measurements. Only a part is listed here, and it is no random draw. Some of the results follow.

Protein sequences, listed by entry. Tags and fused reporters are not part of them. Lines headed by an entry give the natural chain unless they say otherwise; changes in a name come on top.
UniProt P49720: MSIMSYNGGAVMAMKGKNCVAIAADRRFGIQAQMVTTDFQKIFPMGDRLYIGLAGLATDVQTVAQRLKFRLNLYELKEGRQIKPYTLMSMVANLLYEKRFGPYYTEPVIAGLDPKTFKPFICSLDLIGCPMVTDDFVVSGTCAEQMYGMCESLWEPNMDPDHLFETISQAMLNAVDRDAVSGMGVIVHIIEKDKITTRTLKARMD
UniProt Q6DD87: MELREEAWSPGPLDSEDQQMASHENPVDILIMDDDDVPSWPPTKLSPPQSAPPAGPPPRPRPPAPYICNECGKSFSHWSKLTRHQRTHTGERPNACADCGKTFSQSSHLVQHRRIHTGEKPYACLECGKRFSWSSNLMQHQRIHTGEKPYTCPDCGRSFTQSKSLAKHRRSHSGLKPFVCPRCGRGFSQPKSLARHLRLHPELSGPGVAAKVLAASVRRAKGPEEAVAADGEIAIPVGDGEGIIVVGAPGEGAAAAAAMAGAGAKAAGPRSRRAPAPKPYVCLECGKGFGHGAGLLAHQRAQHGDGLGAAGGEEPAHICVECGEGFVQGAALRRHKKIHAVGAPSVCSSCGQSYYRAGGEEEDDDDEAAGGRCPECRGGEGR
UniProt P28715: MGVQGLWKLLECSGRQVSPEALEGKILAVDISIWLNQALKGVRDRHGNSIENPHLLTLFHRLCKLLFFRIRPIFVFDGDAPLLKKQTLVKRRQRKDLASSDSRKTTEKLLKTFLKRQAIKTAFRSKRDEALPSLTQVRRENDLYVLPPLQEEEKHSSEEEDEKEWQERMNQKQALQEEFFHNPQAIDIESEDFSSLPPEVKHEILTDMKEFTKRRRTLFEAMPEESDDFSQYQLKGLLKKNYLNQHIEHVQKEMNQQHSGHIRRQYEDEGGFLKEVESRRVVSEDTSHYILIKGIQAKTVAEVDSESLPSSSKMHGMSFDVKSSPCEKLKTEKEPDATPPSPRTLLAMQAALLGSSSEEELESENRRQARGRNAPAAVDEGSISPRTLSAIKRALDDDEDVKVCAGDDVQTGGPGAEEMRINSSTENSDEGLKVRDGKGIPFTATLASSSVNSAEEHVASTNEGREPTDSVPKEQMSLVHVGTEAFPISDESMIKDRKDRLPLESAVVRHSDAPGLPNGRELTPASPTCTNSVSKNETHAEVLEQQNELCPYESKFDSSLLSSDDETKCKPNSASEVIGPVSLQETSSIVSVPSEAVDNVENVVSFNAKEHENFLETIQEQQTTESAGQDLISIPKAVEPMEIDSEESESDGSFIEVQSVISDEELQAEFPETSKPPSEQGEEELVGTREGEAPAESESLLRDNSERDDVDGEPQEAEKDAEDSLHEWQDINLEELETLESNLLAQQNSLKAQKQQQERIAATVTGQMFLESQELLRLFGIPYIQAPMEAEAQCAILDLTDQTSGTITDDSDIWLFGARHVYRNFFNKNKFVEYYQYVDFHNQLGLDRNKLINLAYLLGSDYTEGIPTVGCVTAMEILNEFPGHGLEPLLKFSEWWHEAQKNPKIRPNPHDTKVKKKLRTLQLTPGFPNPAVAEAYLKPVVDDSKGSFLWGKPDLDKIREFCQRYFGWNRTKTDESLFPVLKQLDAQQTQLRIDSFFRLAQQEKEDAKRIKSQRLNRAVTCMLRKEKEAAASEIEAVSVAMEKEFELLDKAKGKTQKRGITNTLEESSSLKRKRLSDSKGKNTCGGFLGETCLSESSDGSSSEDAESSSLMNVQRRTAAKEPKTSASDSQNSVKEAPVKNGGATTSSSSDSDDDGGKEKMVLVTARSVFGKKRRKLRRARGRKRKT
UniProt Q14114: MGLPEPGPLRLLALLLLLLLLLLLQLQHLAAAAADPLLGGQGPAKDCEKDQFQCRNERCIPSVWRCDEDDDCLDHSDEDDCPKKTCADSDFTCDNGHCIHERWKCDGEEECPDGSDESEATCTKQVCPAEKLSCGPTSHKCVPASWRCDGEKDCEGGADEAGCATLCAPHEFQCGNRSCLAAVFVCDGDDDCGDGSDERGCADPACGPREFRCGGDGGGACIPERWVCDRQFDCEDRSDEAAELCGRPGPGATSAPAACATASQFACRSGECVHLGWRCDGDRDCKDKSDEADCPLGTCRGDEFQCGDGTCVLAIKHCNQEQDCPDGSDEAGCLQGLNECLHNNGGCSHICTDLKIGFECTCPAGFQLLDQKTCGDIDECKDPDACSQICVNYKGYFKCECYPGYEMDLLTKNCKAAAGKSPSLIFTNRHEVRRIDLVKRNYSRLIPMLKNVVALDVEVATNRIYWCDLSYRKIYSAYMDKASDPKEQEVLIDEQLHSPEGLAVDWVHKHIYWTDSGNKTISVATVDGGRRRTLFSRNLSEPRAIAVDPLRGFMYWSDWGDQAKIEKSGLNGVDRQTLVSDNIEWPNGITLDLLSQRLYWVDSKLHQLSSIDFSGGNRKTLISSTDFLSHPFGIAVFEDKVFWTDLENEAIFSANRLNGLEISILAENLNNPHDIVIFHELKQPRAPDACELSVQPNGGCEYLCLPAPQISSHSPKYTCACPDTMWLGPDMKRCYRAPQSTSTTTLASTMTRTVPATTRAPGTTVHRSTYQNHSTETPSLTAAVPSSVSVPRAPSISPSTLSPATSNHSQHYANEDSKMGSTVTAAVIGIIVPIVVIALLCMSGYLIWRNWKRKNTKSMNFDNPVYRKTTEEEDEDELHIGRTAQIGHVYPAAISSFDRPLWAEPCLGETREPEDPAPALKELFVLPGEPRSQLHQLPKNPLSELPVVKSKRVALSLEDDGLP
UniProt Q8N5I9: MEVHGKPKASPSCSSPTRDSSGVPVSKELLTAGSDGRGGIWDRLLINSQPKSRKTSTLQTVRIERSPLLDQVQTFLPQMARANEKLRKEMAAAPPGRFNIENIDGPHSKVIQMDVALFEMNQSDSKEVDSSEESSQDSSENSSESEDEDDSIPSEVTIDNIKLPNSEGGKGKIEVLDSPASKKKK
UniProt P25787: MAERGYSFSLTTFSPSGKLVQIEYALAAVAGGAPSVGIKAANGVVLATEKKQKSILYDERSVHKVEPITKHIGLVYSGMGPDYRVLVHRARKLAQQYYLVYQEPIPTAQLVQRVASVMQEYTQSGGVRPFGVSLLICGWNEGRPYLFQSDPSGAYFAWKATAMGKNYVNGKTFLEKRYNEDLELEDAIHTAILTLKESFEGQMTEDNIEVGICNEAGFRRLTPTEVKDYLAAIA
UniProt O60841: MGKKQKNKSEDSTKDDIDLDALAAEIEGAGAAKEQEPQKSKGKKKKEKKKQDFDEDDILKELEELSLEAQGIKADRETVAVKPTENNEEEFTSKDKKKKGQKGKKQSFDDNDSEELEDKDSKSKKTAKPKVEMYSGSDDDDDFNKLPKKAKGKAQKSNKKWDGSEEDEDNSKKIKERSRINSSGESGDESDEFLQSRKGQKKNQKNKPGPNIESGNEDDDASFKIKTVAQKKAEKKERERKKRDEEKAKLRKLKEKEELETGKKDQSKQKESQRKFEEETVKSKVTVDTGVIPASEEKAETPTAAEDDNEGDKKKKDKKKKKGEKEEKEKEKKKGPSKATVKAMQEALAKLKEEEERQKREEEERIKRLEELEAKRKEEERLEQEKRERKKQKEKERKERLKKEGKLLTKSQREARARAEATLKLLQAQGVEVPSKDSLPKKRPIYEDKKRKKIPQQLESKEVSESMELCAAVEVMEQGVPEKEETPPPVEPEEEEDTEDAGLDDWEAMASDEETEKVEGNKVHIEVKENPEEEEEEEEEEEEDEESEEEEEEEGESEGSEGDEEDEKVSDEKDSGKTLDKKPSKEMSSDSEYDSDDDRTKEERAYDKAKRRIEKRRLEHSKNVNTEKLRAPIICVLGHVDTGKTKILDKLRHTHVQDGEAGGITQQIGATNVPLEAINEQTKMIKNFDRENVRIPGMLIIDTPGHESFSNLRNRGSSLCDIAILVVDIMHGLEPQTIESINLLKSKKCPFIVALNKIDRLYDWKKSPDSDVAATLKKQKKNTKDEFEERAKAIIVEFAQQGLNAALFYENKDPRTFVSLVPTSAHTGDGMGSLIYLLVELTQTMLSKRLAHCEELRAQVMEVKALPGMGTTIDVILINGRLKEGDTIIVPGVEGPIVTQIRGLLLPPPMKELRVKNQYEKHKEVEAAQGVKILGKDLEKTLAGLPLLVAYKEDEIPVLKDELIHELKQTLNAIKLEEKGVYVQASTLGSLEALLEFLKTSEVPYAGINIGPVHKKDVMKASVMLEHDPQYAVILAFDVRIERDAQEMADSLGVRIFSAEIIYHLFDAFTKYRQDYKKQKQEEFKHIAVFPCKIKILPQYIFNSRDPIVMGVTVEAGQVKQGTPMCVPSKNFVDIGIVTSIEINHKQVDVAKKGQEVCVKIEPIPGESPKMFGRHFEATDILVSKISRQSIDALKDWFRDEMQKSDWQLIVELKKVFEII
UniProt P01848, whole entry, looked up: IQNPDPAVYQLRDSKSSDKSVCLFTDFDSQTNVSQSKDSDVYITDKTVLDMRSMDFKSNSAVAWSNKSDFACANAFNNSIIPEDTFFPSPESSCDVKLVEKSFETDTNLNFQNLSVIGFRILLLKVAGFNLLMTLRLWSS
UniProt P36969, whole entry: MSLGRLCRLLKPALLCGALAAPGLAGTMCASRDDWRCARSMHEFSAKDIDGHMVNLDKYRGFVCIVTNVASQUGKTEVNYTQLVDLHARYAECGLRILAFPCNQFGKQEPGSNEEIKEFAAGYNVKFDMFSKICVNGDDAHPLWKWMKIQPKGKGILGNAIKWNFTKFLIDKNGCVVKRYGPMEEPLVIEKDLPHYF
UniProt Q15334: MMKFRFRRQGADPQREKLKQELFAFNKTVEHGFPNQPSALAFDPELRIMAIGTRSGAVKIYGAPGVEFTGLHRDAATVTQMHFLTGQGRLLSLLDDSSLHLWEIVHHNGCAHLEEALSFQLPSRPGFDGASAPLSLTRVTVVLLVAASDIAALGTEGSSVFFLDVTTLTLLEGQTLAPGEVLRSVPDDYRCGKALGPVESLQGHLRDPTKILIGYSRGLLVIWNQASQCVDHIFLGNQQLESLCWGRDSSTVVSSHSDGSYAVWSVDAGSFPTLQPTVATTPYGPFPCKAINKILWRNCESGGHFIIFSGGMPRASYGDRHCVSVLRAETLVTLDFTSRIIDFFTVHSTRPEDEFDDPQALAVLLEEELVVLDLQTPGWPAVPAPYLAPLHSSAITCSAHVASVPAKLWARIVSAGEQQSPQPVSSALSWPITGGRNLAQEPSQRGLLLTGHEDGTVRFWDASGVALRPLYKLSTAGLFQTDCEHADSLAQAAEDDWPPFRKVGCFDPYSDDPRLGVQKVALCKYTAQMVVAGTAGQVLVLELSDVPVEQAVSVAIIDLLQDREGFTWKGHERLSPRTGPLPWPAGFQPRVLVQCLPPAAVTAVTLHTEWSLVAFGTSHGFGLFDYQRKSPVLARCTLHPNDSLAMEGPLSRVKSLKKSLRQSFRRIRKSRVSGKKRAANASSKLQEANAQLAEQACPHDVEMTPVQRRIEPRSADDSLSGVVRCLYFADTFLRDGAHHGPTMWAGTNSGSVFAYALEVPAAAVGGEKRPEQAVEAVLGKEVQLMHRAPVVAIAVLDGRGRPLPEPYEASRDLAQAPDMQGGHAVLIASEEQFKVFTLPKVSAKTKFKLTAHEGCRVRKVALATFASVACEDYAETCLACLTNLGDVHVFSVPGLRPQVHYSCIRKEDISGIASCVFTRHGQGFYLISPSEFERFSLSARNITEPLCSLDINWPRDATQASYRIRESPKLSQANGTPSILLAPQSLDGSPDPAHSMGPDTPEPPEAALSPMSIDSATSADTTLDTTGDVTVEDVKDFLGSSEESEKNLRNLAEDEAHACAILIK
UniProt Q5VWQ0: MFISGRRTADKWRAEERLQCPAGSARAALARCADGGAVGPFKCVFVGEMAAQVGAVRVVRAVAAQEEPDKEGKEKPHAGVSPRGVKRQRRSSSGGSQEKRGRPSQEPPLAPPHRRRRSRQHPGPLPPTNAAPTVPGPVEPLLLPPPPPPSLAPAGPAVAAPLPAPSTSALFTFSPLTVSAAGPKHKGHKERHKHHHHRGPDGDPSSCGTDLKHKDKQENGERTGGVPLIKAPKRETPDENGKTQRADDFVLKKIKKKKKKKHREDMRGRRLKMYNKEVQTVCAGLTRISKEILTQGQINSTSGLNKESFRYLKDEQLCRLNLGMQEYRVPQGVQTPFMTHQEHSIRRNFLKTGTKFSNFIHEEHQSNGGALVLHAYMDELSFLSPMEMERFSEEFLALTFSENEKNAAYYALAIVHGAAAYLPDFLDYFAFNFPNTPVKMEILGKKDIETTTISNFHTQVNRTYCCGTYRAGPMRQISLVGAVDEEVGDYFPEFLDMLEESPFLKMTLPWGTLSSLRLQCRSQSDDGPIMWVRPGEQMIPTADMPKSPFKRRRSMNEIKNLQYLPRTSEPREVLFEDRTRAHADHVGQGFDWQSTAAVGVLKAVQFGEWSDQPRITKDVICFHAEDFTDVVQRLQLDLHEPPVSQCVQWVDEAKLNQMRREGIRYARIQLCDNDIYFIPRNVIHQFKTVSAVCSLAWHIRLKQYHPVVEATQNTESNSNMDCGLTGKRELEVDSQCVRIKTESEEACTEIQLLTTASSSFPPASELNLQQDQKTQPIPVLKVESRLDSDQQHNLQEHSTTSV

Assays:
guanosine triphosphate = compound: Nc1nc2c(ncn2[C@@H]2O[C@H](COP(=O)(O)OP(=O)(O)OP(=O)(O)O)[C@@H](O)[C@H]2O)c(=O)[nH]1 [guanosine triphosphate]; assay: NP40-soluble protein abundance relative to vehicle (solubility fold change) (ratio); higher = more soluble protein in presence of GTP
In short: (§1)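 Crude Jurkat lysate, prepared by Dounce homogenisation, was exposed to eight concentrations from 0.1 to 10 mM for 10 min at room temperature and then 3 min at 37 °C. Solubilisation used 0.8% NP40 with benzonase for 60 min at 4 °C, followed by ultracentrifugation and TMT labelling of the supernatant for LC-MS/MS. After vsn normalisation of intensities, each value is the fold change against the detergent-processed vehicle within each replicate, across three independent experiments.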

adenosine triphosphate = compound: Nc1ncnc2c1ncn2[C@@H]1O[C@H](COP(=O)(O)OP(=O)(O)OP(=O)(O)O)[C@@H](O)[C@H]1O [adenosine triphosphate]; assay: NP40-soluble protein abundance relative to vehicle (solubility fold change) (ratio); higher = more soluble protein in presence of ATP
In short: as §1

Target	NP40-soluble protein abundance (guanosine triphosphate; concentration: 0.1mM)	NP40-soluble protein abundance (guanosine triphosphate; concentration: 0.5mM)	NP40-soluble protein abundance (guanosine triphosphate; concentration: 1mM)	NP40-soluble protein abundance (guanosine triphosphate; concentration: 2mM)	NP40-soluble protein abundance (guanosine triphosphate; concentration: 4mM)	NP40-soluble protein abundance (guanosine triphosphate; concentration: 6mM)	NP40-soluble protein abundance (guanosine triphosphate; concentration: 8mM)	NP40-soluble protein abundance (guanosine triphosphate; concentration: 10mM)	NP40-soluble protein abundance (adenosine triphosphate; concentration: 1mM)	NP40-soluble protein abundance (adenosine triphosphate; concentration: 2mM)	NP40-soluble protein abundance (adenosine triphosphate; concentration: 4mM)	NP40-soluble protein abundance (adenosine triphosphate; concentration: 6mM)	NP40-soluble protein abundance (adenosine triphosphate; concentration: 8mM)	NP40-soluble protein abundance (adenosine triphosphate; concentration: 10mM)
A0A075B7F8|A8CG34 (UniProt A8CG34)	0.98 ± 0.0065	0.904 ± 0.092	0.967 ± 0.042	0.922 ± 0.081	1.22 ± 0.056	1.24 ± 0.18	1.28 ± 0.095	1.46 ± 0.25						
A0A087WUL2 (UniProt P49720)	1.01 ± 0.088	1.03 ± 0.12	0.929 ± 0.16	1.04 ± 0.24	1.09 ± 0.28	1 ± 0.28	0.958 ± 0.14	0.974 ± 0.13						
A0A087WUS0|E7ETK0 and related entries (UniProt P62847)	0.977 ± 0.12	1.09 ± 0.18	1.08 ± 0.26	1.03 ± 0.26	0.886 ± 0.27	0.893 ± 0.28	0.708 ± 0.22	0.839 ± 0.28						
A0A087WUD1|Q6DD87 (UniProt Q6DD87)	1.02 ± 0.039	1.03 ± 0.043	1.001 ± 0.0097	0.963 ± 0.011	0.962 ± 0.037	0.947 ± 0.029	1 ± 0.04	0.996 ± 0.049						
A0A087WVF7|Q9NZM3 and related entries (UniProt Q9NZM3)	0.972 ± 0.061	1.01 ± 0.03	0.926 ± 0.094	0.956 ± 0.097	0.926 ± 0.094	0.937 ± 0.077	0.956 ± 0.043	0.975 ± 0.083						
A0A087WUH0|P28715 (UniProt P28715)	1.06 ± 0.018	1.04 ± 0.017	1.052 ± 0.0099	1.04 ± 0.038	1.05 ± 0.027	1.04 ± 0.019	1.08 ± 0.075	1.05 ± 0.039						
A0A087WVP1|Q14517 (UniProt Q14517)	1.07 ± 0.039	1.09 ± 0.064	1.15 ± 0.03	1.14 ± 0.054	1.19 ± 0.081	1.15 ± 0.076	1.23 ± 0.16	1.2 ± 0.17						
A0A087WW84|E9PP15 and related entries (UniProt Q14114)	1.04 ± 0.057	0.998 ± 0.046	0.967 ± 0.12	0.944 ± 0.08	0.919 ± 0.015	0.994 ± 0.01	1.02 ± 0.097	0.981 ± 0.012						
A0A087WT30|Q8N5I9 (UniProt Q8N5I9)	0.984 ± 0.045	1.12 ± 0.12	1.5 ± 0.091	1.4 ± 0.037	1.4 ± 0.025	1.43 ± 0.076	1.44 ± 0.057	1.48 ± 0.046						
A0A024RA52|P25787 (UniProt P25787)	1.04 ± 0.039	0.99 ± 0.039	1.1 ± 0.044	1.02 ± 0.12	1.13 ± 0.14	1.05 ± 0.15	1.16 ± 0.14	1.01 ± 0.16						
A0A087WUB9|Q8WYA6 (UniProt Q8WYA6)	1.02 ± 0.014	0.978 ± 0.02	1.02 ± 0.029	0.9973 ± 0.0034	1.06 ± 0.025	1.06 ± 0.021	1.1 ± 0.0082	1.09 ± 0.018						
A0A087WUT6|O60841 (UniProt O60841)	0.959 ± 0.057	0.96 ± 0.071	0.95 ± 0.069	0.9 ± 0.091	0.914 ± 0.073	0.929 ± 0.095	0.969 ± 0.063	0.924 ± 0.092						
A0A087WTE7|A0A087WUE4|C9JMY0 and related entries (UniProt Q96PV6)	0.977 ± 0.043	0.967 ± 0.039	1.03 ± 0.021	1.02 ± 0.083	1.09 ± 0.064	1.14 ± 0.066	1.26 ± 0.089	1.29 ± 0.17						
A0A087WU64|A6NMQ1 and related entries (UniProt P09884)	1.06 ± 0.025	1.07 ± 0.035	1.01 ± 0.047	1.02 ± 0.057	1.01 ± 0.033	0.994 ± 0.028	1.01 ± 0.051	0.973 ± 0.029						
A0A087WWC6|P01848 and related entries (UniProt Q6P4I7+P01848)	0.933 ± 0.081	1.01 ± 0.14	0.994 ± 0.11	0.974 ± 0.16	0.926 ± 0.12	0.994 ± 0.14	0.994 ± 0.05	1 ± 0.085						
A0A087WT12|A0A087X2I2|P36969 and related entries (UniProt P36969)	0.981 ± 0.024	0.966 ± 0.021	0.922 ± 0.045	0.924 ± 0.012	0.959 ± 0.043	0.932 ± 0.037	0.919 ± 0.063	0.873 ± 0.069						
A0A087WVP4|A0A087X1R1|P53814 and related entries (UniProt P53814)	1.05 ± 0.19	0.953 ± 0.084	1.05 ± 0.037	1.13 ± 0.016	1.15 ± 0.063	1.15 ± 0.16	1.119 ± 0.0095	0.979 ± 0.03						
A0A087WUD7|Q8WU76 and related entries (UniProt Q8WU76)	1.11 ± 0.17	1.06 ± 0.17	1.06 ± 0.13	1.08 ± 0.19	1.11 ± 0.16	1.09 ± 0.2	1.05 ± 0.13	0.992 ± 0.093						
UniProt Q9Y2D5 and related entries									0.913 ± 0.07	0.982 ± 0.044	1.07 ± 0.038	1.19 ± 0.05	1.15 ± 0.024	1.19 ± 0.035
A0A087WVT6|Q9BWW4 and related entries (UniProt Q9BWW4)	1.14 ± 0.36	1.14 ± 0.19	1.11 ± 0.14	1 ± 0.15	0.955 ± 0.12	0.906 ± 0.25	1.16 ± 0.029	1.28 ± 0.38						
A0A067XG54|Q8NB49 and related entries (UniProt Q8NB49)	1.11 ± 0.11	1.09 ± 0.11	1.08 ± 0.1	1.04 ± 0.11	1.13 ± 0.15	1.03 ± 0.15	1.06 ± 0.046	0.959 ± 0.12						
A0A087WTV6|Q96C36 (UniProt Q96C36)	0.946 ± 0.036	0.974 ± 0.032	1 ± 0.066	1 ± 0.071	0.999 ± 0.062	1.02 ± 0.1	1.01 ± 0.093	1.01 ± 0.11						
A0A087WUI6|Q8WXW3 (UniProt Q8WXW3)	1.06 ± 0.046	0.885 ± 0.045	1.034 ± 0.0025	1.005 ± 0.01	0.942 ± 0.061	0.954 ± 0.064	0.932 ± 0.063	0.983 ± 0.013						
A0A087WTU3|Q9Y6I9 (UniProt Q9Y6I9)	0.968 ± 0.064	0.976 ± 0.098	0.97 ± 0.088	0.934 ± 0.1	0.94 ± 0.12	0.93 ± 0.13	0.934 ± 0.096	0.931 ± 0.1						
A0A087WSV8|Q5URX0 and related entries (UniProt V9HW75+Q5URX0)	0.882 ± 0.062	0.854 ± 0.05	0.999 ± 0.068	1.04 ± 0.12	1.02 ± 0.073	1.05 ± 0.15	1 ± 0.14	1.29 ± 0.29						
A0A087WW77|Q15334 (UniProt Q15334)	1.07 ± 0.14	1.1 ± 0.071	1.058 ± 0.0032	1.11 ± 0.036	1.01 ± 0.066	1.03 ± 0.024	1.06 ± 0.051	1.08 ± 0.026						
A0A087WWP8|A0A0C4DGT8|Q5VWQ0 (UniProt Q5VWQ0)	1.06 ± 0.027	1.22 ± 0.017	1.27 ± 0.11	1.38 ± 0.15	1.36 ± 0.17	1.45 ± 0.2	1.44 ± 0.21	1.48 ± 0.22						

Look-ups from the results shown:
In NP40-soluble protein abundance (guanosine triphosphate; concentration: 1mM), A0A087WUL2 (UniProt P49720) has 0.929 ± 0.16
In NP40-soluble protein abundance (guanosine triphosphate; concentration: 0.5mM), A0A087WUD1|Q6DD87 (UniProt Q6DD87) has 1.03 ± 0.043
